Laboratory results: PubChem BioAssay AID1224830 (NIAID, 2016)
Shown is one part, drawn at random, of about 18,000 reagents tested. About 2,900 of them (16%) count as active. 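Calls are made per well; low scores hint the gene aids the LPS response, high scores that it dampens it.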 Repeated entries: four replicate wells of each siRNA pool.

Aim: 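Genes whose knock-down alters the TNF-alpha reporter response to LPS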 (primary screen)
Cell system: human THP-1 monocytic leukaemia cells, TNF dual-luciferase reporter clone, PMA-differentiated to macrophage-like cells
Knock-down reagent: siRNA pool against human genes, 50 nM
Timing: LPS for 4 h, given about 3 days after siRNA transfection
Challenge: bacterial LPS (TLR4 ligand), 10 ng/ml
Read-out: 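TNF firefly reporter luminescence divided by renilla, normalised to the plate median, then turned into a robust z-score for each replicate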
Direction: TNF reporter robust z-score: higher = stronger TNF reporter response to LPS
Call rule: 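Each well counts as active if its z-score is over 2.8 or under -1.5; controls are left without a call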

The first 13 entries, to show the layout:
target gene | PubChem SID | TNF reporter robust z-score | outcome
SCYL3 (SCY1 like pseudokinase 3) | SID315458294 | 1.17 | inactive
SCYL3 (SCY1 like pseudokinase 3) | SID315458294 | 2.16 | inactive
SCYL3 (SCY1 like pseudokinase 3) | SID315458294 | -0.19 | inactive
SCYL3 (SCY1 like pseudokinase 3) | SID315458294 | -0.72 | inactive
ELF5 (E74 like ETS transcription factor 5) | SID315448493 | -0.15 | inactive
ELF5 (E74 like ETS transcription factor 5) | SID315448493 | 0.41 | inactive
ELF5 (E74 like ETS transcription factor 5) | SID315448493 | -0.13 | inactive
ELF5 (E74 like ETS transcription factor 5) | SID315448493 | 0.58 | inactive
RAD51C (RAD51 paralog C) | SID315451031 | -0.57 | inactive
RAD51C (RAD51 paralog C) | SID315451031 | 0.7 | inactive
RAD51C (RAD51 paralog C) | SID315451031 | 1.19 | inactive
RAD51C (RAD51 paralog C) | SID315451031 | 0.72 | inactive
OR4A47 (olfactory receptor family 4 subfamily A member 47) | SID315464824 | 1.12 | inactive

Main list, repeating the preview:
target gene | PubChem SID | TNF reporter robust z-score | outcome
SCYL3 (SCY1 like pseudokinase 3) | SID315458294 | 1.17 | inactive
SCYL3 (SCY1 like pseudokinase 3) | SID315458294 | 2.16 | inactive
SCYL3 (SCY1 like pseudokinase 3) | SID315458294 | -0.19 | inactive
SCYL3 (SCY1 like pseudokinase 3) | SID315458294 | -0.72 | inactive
ELF5 (E74 like ETS transcription factor 5) | SID315448493 | -0.15 | inactive
ELF5 (E74 like ETS transcription factor 5) | SID315448493 | 0.41 | inactive
ELF5 (E74 like ETS transcription factor 5) | SID315448493 | -0.13 | inactive
ELF5 (E74 like ETS transcription factor 5) | SID315448493 | 0.58 | inactive
RAD51C (RAD51 paralog C) | SID315451031 | -0.57 | inactive
RAD51C (RAD51 paralog C) | SID315451031 | 0.7 | inactive
RAD51C (RAD51 paralog C) | SID315451031 | 1.19 | inactive
RAD51C (RAD51 paralog C) | SID315451031 | 0.72 | inactive
OR4A47 (olfactory receptor family 4 subfamily A member 47) | SID315464824 | 1.12 | inactive
OR4A47 (olfactory receptor family 4 subfamily A member 47) | SID315464824 | 1.35 | inactive
OR4A47 (olfactory receptor family 4 subfamily A member 47) | SID315464824 | 0.46 | inactive
OR4A47 (olfactory receptor family 4 subfamily A member 47) | SID315464824 | 1.08 | inactive
TMEM61 (transmembrane protein 61) | SID315463013 | -0.49 | inactive
TMEM61 (transmembrane protein 61) | SID315463013 | -0.07 | inactive
TMEM61 (transmembrane protein 61) | SID315463013 | -0.32 | inactive
TMEM61 (transmembrane protein 61) | SID315463013 | -0.26 | inactive
IREB2 (iron responsive element binding protein 2) | SID315449530 | 0.95 | inactive
IREB2 (iron responsive element binding protein 2) | SID315449530 | 0.52 | inactive
IREB2 (iron responsive element binding protein 2) | SID315449530 | 0.67 | inactive
IREB2 (iron responsive element binding protein 2) | SID315449530 | 0.76 | inactive
SH2D1A (SH2 domain containing 1A) | SID315449829 | -0.24 | inactive
SH2D1A (SH2 domain containing 1A) | SID315449829 | -0.45 | inactive
SH2D1A (SH2 domain containing 1A) | SID315449829 | 0.14 | inactive
SH2D1A (SH2 domain containing 1A) | SID315449829 | 0.28 | inactive
RANGRF (RAN guanine nucleotide release factor) | SID315456138 | 0.87 | inactive
RANGRF (RAN guanine nucleotide release factor) | SID315456138 | 1.63 | inactive
RANGRF (RAN guanine nucleotide release factor) | SID315456138 | 2.02 | inactive
RANGRF (RAN guanine nucleotide release factor) | SID315456138 | 4.08 | active
GRK5 (G protein-coupled receptor kinase 5) | SID315449018 | 0.1 | inactive
GRK5 (G protein-coupled receptor kinase 5) | SID315449018 | -0.23 | inactive
GRK5 (G protein-coupled receptor kinase 5) | SID315449018 | 1.63 | inactive
GRK5 (G protein-coupled receptor kinase 5) | SID315449018 | 1.14 | inactive
ZNF714 (zinc finger protein 714) | SID315462367 | -0.55 | inactive
ZNF714 (zinc finger protein 714) | SID315462367 | 0.34 | inactive
ZNF714 (zinc finger protein 714) | SID315462367 | -0.62 | inactive
ZNF714 (zinc finger protein 714) | SID315462367 | -0.78 | inactive
C17orf58 (chromosome 17 open reading frame 58) | SID315463725 | 5.05 | active
C17orf58 (chromosome 17 open reading frame 58) | SID315463725 | 2.21 | inactive
C17orf58 (chromosome 17 open reading frame 58) | SID315463725 | 0.18 | inactive
C17orf58 (chromosome 17 open reading frame 58) | SID315463725 | 1.41 | inactive
ZNF277 (zinc finger protein 277) | SID315454667 | -0.78 | inactive
ZNF277 (zinc finger protein 277) | SID315454667 | 0.02 | inactive
ZNF277 (zinc finger protein 277) | SID315454667 | 0.8 | inactive
ZNF277 (zinc finger protein 277) | SID315454667 | -0.27 | inactive
SND1-IT1 (SND1 intronic transcript 1) | SID315455919 | -0.44 | inactive
SND1-IT1 (SND1 intronic transcript 1) | SID315455919 | -0.13 | inactive
SND1-IT1 (SND1 intronic transcript 1) | SID315455919 | -0.23 | inactive
SND1-IT1 (SND1 intronic transcript 1) | SID315455919 | -0.37 | inactive
YPEL1 (yippee like 1) | SID315456178 | -1.24 | inactive
YPEL1 (yippee like 1) | SID315456178 | -0.83 | inactive
YPEL1 (yippee like 1) | SID315456178 | -0.4 | inactive
YPEL1 (yippee like 1) | SID315456178 | -0.24 | inactive
ARL17B (ARF like GTPase 17B) | SID315465062 | 0.18 | inactive
ARL17B (ARF like GTPase 17B) | SID315465062 | 0.31 | inactive
ARL17B (ARF like GTPase 17B) | SID315465062 | 0.96 | inactive
ARL17B (ARF like GTPase 17B) | SID315465062 | 0.41 | inactive
SRA1 (steroid receptor RNA activator 1) | SID315453750 | -0.12 | inactive
SRA1 (steroid receptor RNA activator 1) | SID315453750 | 1.4 | inactive
SRA1 (steroid receptor RNA activator 1) | SID315453750 | 0.56 | inactive
SRA1 (steroid receptor RNA activator 1) | SID315453750 | 0.69 | inactive
KRT79 (keratin 79) | SID315464002 | -0.6 | inactive
KRT79 (keratin 79) | SID315464002 | -0.96 | inactive
KRT79 (keratin 79) | SID315464002 | -1.14 | inactive
KRT79 (keratin 79) | SID315464002 | -0.68 | inactive
FAM174C (family with sequence similarity 174 member C) | SID315457341 | -1.3 | inactive
FAM174C (family with sequence similarity 174 member C) | SID315457341 | -1.32 | inactive
FAM174C (family with sequence similarity 174 member C) | SID315457341 | -1.6 | active
FAM174C (family with sequence similarity 174 member C) | SID315457341 | -1.11 | inactive
ENSA (endosulfine alpha) | SID315448516 | -1.71 | active
ENSA (endosulfine alpha) | SID315448516 | -1.3 | inactive
ENSA (endosulfine alpha) | SID315448516 | -0.83 | inactive
ENSA (endosulfine alpha) | SID315448516 | -1.15 | inactive
TLE4 (TLE family member 4, transcriptional corepressor) | SID315451891 | 0.19 | inactive
TLE4 (TLE family member 4, transcriptional corepressor) | SID315451891 | -0.14 | inactive
TLE4 (TLE family member 4, transcriptional corepressor) | SID315451891 | -0.13 | inactive
TLE4 (TLE family member 4, transcriptional corepressor) | SID315451891 | -0.5 | inactive
EDC3 (enhancer of mRNA decapping 3) | SID315459672 | 1.55 | inactive
EDC3 (enhancer of mRNA decapping 3) | SID315459672 | 1.41 | inactive
EDC3 (enhancer of mRNA decapping 3) | SID315459672 | 0.81 | inactive
EDC3 (enhancer of mRNA decapping 3) | SID315459672 | 1.58 | inactive
TTLL4 (tubulin tyrosine ligase like 4) | SID315453456 | 0.17 | inactive
TTLL4 (tubulin tyrosine ligase like 4) | SID315453456 | 0.81 | inactive
TTLL4 (tubulin tyrosine ligase like 4) | SID315453456 | -0.83 | inactive
TTLL4 (tubulin tyrosine ligase like 4) | SID315453456 | -0.07 | inactive
SERPINB2 (serpin family B member 2) | SID315450415 | -0.19 | inactive
SERPINB2 (serpin family B member 2) | SID315450415 | 0.54 | inactive
SERPINB2 (serpin family B member 2) | SID315450415 | 0.56 | inactive
SERPINB2 (serpin family B member 2) | SID315450415 | 0.29 | inactive
NCF4 (neutrophil cytosolic factor 4) | SID315450160 | 0.16 | inactive
NCF4 (neutrophil cytosolic factor 4) | SID315450160 | 0.26 | inactive
NCF4 (neutrophil cytosolic factor 4) | SID315450160 | 0.46 | inactive
NCF4 (neutrophil cytosolic factor 4) | SID315450160 | -0.15 | inactive
OR6X1 (olfactory receptor family 6 subfamily X member 1) | SID315464634 | -0.39 | inactive
OR6X1 (olfactory receptor family 6 subfamily X member 1) | SID315464634 | 0.87 | inactive
OR6X1 (olfactory receptor family 6 subfamily X member 1) | SID315464634 | -1.12 | inactive
OR6X1 (olfactory receptor family 6 subfamily X member 1) | SID315464634 | -0.12 | inactive
PTCD2 (pentatricopeptide repeat domain 2) | SID315459476 | -0.74 | inactive
PTCD2 (pentatricopeptide repeat domain 2) | SID315459476 | -1.09 | inactive
PTCD2 (pentatricopeptide repeat domain 2) | SID315459476 | -0.73 | inactive
PTCD2 (pentatricopeptide repeat domain 2) | SID315459476 | -1.26 | inactive
NDUFAF4 (NADH:ubiquinone oxidoreductase complex assembly factor 4) | SID315456121 | 0.36 | inactive
NDUFAF4 (NADH:ubiquinone oxidoreductase complex assembly factor 4) | SID315456121 | -0.84 | inactive
NDUFAF4 (NADH:ubiquinone oxidoreductase complex assembly factor 4) | SID315456121 | -0.48 | inactive
NDUFAF4 (NADH:ubiquinone oxidoreductase complex assembly factor 4) | SID315456121 | -0.54 | inactive
OR8G1 (olfactory receptor family 8 subfamily G member 1) | SID315455788 | -0.05 | inactive
OR8G1 (olfactory receptor family 8 subfamily G member 1) | SID315455788 | 0.46 | inactive
OR8G1 (olfactory receptor family 8 subfamily G member 1) | SID315455788 | 1.44 | inactive
OR8G1 (olfactory receptor family 8 subfamily G member 1) | SID315455788 | -0.26 | inactive
